Results: paper PMC11165425
Results are given in words; binding and its absence hold for the method and conditions named. In cells and extracts the contact can be indirect. A yes stands for co-enrichment or nearness to the bait. Other partners may have been found. Sequences can lack the tags named with a protein.

Sequences of proteins named here, by UniProt entry; tags and fusion partners are left off.
UniProt Q8N3C0: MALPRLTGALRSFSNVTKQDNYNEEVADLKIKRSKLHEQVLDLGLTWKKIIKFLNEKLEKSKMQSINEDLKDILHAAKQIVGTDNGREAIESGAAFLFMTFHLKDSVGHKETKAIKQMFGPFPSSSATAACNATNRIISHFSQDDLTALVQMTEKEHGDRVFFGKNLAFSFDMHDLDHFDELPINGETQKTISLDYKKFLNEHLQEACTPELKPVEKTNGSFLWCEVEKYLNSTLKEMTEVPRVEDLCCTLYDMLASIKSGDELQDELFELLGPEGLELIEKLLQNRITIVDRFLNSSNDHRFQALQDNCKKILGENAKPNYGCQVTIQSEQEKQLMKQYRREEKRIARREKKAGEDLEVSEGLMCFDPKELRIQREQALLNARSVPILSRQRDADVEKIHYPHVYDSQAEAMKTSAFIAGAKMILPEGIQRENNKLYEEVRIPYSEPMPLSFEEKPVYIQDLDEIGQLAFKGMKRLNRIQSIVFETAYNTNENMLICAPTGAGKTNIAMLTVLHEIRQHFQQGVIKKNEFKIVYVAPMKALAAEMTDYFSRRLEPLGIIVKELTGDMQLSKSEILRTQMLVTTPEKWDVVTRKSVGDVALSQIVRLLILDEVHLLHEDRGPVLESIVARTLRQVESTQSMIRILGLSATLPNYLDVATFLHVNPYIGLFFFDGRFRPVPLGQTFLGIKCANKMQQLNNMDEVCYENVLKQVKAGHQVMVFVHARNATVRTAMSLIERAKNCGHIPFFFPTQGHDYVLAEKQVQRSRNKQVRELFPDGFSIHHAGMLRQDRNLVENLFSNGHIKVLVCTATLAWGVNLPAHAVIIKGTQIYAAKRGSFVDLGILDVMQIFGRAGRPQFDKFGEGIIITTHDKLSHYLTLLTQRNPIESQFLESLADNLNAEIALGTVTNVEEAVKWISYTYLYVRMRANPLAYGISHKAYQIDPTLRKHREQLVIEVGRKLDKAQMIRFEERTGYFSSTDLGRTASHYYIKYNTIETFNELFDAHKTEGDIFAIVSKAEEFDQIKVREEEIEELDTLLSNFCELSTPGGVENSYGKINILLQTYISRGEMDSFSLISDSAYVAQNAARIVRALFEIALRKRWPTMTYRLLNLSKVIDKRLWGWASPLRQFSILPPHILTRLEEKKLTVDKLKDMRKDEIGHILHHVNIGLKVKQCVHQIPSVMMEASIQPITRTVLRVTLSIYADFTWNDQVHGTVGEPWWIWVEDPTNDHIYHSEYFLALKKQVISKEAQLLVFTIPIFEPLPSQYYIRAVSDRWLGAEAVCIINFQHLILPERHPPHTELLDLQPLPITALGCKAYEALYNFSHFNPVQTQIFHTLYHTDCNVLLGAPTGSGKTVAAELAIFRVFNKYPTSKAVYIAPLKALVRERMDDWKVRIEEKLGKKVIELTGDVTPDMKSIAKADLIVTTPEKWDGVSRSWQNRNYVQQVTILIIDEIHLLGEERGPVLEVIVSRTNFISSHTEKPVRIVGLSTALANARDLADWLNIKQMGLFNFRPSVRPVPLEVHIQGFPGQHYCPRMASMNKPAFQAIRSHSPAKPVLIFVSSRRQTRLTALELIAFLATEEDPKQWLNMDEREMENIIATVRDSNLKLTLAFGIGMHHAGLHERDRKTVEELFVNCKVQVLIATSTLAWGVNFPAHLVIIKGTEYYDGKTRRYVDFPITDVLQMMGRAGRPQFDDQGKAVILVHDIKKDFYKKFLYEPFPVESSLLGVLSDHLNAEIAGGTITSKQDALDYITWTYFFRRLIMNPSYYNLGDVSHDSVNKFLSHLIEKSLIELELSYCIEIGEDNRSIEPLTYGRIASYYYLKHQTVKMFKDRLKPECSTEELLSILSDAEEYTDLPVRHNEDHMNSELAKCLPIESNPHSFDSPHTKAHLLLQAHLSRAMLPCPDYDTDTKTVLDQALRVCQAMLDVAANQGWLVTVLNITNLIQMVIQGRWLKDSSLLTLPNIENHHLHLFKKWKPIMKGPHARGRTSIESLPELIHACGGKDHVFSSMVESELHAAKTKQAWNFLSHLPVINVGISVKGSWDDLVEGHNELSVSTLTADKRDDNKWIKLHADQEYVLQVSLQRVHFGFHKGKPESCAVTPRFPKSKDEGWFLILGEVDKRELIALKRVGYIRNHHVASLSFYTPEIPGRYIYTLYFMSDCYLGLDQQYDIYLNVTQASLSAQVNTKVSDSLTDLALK
UniProt Q07065: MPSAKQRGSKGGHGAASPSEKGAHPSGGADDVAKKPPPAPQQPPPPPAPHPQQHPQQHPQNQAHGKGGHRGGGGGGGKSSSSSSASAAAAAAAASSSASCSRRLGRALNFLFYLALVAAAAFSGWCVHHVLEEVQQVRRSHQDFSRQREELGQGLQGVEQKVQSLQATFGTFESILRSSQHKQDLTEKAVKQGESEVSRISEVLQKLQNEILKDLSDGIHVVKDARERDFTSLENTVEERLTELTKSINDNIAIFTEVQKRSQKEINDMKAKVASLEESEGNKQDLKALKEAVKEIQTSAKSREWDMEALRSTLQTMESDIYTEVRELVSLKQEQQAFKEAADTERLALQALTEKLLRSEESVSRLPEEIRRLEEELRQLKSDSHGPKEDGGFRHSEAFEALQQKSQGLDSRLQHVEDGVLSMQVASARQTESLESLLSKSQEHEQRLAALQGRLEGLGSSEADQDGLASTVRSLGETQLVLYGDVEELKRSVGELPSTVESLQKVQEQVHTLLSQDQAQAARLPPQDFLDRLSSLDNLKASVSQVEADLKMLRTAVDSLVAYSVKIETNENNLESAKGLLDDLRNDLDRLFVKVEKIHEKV
UniProt Q7KZF4: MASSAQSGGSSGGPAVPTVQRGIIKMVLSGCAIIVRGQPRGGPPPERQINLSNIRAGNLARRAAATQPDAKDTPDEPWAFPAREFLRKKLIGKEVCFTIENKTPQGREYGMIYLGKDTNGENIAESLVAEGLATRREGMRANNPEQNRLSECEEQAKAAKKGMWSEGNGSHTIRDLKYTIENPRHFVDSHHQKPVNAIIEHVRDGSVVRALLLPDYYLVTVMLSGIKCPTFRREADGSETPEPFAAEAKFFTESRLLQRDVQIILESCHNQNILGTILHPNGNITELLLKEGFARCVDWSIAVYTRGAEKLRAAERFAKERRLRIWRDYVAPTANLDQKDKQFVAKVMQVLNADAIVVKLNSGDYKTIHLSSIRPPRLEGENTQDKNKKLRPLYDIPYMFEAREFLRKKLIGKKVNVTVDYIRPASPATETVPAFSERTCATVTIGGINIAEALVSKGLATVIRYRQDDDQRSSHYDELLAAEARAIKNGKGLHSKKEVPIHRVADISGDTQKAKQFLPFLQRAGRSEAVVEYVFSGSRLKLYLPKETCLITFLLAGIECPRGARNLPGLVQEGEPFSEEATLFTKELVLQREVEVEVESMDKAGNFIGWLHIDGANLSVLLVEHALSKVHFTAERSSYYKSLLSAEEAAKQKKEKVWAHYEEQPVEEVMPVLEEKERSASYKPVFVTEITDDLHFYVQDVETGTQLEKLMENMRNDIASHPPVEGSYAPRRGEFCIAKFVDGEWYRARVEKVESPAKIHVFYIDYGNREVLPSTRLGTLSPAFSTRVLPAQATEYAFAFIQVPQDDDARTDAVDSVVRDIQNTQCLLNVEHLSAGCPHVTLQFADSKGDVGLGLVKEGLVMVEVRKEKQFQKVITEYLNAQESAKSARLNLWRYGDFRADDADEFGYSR
UniProt P61011: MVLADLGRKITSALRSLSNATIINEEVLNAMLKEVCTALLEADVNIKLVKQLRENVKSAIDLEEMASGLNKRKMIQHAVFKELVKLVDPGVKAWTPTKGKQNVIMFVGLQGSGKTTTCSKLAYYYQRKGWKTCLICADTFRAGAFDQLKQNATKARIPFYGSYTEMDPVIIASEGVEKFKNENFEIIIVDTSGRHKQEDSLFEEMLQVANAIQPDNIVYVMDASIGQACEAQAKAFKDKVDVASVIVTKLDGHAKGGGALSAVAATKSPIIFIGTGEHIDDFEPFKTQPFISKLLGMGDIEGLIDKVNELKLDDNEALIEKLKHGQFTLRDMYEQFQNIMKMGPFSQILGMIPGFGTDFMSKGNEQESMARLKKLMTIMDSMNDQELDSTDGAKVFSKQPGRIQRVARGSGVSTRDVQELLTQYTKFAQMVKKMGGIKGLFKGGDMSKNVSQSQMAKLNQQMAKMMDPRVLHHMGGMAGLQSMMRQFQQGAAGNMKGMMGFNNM
UniProt O94822: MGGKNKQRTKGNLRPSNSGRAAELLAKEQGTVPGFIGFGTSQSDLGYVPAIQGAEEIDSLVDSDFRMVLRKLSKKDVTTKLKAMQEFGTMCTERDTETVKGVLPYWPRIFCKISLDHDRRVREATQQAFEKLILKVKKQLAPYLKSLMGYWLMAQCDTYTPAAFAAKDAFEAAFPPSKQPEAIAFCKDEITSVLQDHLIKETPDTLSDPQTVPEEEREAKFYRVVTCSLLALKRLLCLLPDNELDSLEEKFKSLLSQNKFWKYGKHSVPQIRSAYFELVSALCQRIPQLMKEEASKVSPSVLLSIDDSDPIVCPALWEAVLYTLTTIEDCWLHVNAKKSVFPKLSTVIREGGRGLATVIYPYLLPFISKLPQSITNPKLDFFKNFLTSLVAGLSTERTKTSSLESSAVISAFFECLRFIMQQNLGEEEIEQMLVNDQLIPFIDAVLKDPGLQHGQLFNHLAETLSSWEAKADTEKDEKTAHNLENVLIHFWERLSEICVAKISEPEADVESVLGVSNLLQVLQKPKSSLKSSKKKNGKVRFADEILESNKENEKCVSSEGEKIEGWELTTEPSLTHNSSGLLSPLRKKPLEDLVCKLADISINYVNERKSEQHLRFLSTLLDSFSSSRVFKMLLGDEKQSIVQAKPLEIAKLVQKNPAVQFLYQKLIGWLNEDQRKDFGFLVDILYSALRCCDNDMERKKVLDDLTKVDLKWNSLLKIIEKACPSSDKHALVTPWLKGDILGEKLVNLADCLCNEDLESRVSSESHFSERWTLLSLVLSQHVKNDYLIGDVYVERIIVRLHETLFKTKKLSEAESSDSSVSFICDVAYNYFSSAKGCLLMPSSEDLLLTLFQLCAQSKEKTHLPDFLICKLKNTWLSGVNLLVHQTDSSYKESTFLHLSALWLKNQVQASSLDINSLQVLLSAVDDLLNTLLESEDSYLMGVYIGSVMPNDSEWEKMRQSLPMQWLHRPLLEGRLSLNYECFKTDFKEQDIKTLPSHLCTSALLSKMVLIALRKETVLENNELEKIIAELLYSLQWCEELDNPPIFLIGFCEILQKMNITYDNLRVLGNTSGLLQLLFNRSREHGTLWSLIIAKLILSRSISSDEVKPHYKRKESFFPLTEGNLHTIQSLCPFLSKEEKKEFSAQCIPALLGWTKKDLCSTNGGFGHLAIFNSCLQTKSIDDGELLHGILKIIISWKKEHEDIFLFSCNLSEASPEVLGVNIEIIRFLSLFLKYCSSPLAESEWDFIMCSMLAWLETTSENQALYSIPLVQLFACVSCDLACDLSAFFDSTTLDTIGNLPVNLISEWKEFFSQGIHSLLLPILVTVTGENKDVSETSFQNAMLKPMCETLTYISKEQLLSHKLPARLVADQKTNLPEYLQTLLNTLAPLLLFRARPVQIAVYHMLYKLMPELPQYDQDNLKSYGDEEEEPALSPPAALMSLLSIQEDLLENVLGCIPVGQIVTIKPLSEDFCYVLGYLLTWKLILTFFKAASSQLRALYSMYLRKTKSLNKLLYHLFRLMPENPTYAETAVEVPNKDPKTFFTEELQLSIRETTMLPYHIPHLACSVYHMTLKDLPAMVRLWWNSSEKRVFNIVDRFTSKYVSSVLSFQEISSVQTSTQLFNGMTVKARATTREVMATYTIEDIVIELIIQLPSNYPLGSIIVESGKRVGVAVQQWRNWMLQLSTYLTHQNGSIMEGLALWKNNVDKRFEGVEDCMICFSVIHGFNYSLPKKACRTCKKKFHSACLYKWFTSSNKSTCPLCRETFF

Experiments:
Experiment in all cases: affinity purification with mass spectrometry; IP-SILAC: GFP-Trap beads on whole-cell extracts of HEK293 Flp-In T-REx cells (GFP-SRP19, GFP-SRP9, GFP-SRP14) or U2OS Flp-In T-REx cells (GFP-SRP72) induced 3 h, against parental cells; HNT buffer (20 mM Hepes pH 7.4, 150 mM NaCl, 0.5% Triton X-100), 1.5 h at 4°C; positive: SILAC ratio above 1
GFP-SRP72 (human) = target: T1, GFP-SRP72 (human) (UniProt O76094)
T1 sequence: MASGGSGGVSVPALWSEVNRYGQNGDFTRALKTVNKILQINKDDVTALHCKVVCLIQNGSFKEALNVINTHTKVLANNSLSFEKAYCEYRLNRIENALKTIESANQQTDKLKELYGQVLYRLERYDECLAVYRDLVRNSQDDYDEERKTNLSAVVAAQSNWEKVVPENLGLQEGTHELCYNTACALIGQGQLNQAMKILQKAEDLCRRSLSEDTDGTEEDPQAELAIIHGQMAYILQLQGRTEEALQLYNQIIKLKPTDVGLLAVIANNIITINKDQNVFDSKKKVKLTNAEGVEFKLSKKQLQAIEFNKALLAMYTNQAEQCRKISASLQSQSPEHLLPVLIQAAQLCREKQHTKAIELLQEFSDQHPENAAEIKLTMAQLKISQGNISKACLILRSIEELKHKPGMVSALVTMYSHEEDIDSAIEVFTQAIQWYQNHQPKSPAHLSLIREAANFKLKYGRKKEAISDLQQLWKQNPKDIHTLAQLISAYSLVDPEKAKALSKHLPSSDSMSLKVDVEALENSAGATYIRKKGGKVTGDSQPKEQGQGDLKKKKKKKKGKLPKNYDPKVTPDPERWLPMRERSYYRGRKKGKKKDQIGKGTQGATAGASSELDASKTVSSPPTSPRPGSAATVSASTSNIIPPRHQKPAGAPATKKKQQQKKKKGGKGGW

GFP-SRP19 (human) = target: T2, GFP-SRP19 (human) (UniProt P09132)
T2 sequence: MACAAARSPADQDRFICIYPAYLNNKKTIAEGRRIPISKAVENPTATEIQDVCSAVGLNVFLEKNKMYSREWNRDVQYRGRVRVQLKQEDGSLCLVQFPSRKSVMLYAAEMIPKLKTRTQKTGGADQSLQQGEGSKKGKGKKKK

GFP-SRP14 (human) = GFP-SRP14 (human) (UniProt P37108)
GFP-SRP9 (human) = GFP-SRP9 (human) (UniProt P49458)

Question: With ASCC3 (from UniProt Q8N3C0 1-2202) as the substance, how does the binding (GFP-SRP72 (human)) read?
Answer: binds

Question: And the binding (GFP-SRP19 (human))?
Answer: binds

Question: What about the binding (GFP-SRP14 (human)) of the same substance?
Answer: binds

Question: With CKAP4 (from UniProt Q07065 1-602) as the substance, how does the binding (GFP-SRP9 (human)) read?
Answer: binds

Question: What about the binding (GFP-SRP72 (human)) of the same substance?
Answer: binds

Question: What about the binding (GFP-SRP19 (human)) of the same substance?
Answer: binds

Question: And the binding (GFP-SRP14 (human))?
Answer: binds

Question: Which binding (GFP-SRP72 (human)) does the source give for SND1 (from UniProt Q7KZF4 1-910) here?
Answer: binds

Question: And the binding (GFP-SRP19 (human))?
Answer: binds

Question: Which binding (GFP-SRP9 (human)) does the source give for SRP54 (from UniProt P61011 1-504) here?
Answer: binds weakly

Question: What about the binding (GFP-SRP19 (human)) of the same substance?
Answer: binds

Question: Which binding (GFP-SRP72 (human)) does the source give for listerin (from UniProt O94822 1-1766) here?
Answer: binds

Question: And the binding (GFP-SRP19 (human))?
Answer: binds

Question: And the binding (GFP-SRP14 (human))?
Answer: binds
